# Data from the supplement of paper PMC10849652.
# Protein sequences, listed by entry. Tags and fused reporters are not part of them. Lines headed by an entry give the natural chain unless they say otherwise; changes in a name come on top.
# UniProt Q1RMZ1: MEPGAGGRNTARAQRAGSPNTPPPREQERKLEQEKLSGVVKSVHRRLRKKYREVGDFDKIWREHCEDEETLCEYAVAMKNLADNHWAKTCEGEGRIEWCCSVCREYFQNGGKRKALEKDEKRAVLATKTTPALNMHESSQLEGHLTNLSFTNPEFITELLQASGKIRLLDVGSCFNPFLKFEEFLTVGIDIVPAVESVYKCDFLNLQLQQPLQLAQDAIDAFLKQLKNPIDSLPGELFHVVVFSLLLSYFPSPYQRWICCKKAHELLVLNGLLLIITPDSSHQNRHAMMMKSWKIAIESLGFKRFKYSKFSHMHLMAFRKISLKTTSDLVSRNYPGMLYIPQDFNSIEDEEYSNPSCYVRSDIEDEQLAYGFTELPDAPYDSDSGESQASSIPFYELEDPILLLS
# UniProt Q8TDL5: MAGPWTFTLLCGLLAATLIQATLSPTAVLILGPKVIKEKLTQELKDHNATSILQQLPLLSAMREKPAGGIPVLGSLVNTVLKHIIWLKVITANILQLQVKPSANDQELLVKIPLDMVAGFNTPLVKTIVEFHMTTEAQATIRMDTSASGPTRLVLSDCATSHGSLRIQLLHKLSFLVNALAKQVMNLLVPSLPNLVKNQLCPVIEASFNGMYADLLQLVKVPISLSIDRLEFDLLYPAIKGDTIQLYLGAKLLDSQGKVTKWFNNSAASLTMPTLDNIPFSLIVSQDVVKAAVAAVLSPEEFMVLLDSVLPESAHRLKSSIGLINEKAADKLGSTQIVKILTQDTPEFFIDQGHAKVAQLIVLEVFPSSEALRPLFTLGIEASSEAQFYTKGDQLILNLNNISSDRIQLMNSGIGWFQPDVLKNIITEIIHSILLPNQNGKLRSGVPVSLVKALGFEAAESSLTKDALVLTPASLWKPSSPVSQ
# UniProt Q9UQB8: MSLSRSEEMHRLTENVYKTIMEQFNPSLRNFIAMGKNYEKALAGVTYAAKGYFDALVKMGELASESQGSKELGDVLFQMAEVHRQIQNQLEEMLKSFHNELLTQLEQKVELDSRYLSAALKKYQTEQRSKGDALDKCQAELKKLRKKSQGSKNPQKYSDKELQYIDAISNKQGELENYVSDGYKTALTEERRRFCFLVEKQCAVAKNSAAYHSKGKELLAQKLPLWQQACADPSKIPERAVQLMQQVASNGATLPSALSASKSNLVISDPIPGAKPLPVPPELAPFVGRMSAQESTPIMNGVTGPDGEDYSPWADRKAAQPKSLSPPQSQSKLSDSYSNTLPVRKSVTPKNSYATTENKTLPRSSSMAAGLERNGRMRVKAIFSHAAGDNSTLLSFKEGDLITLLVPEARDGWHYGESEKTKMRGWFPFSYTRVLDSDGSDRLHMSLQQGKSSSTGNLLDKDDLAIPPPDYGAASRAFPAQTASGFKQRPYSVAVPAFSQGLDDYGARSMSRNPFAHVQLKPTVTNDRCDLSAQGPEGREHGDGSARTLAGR
# UniProt Q6AI39, whole entry, looked up: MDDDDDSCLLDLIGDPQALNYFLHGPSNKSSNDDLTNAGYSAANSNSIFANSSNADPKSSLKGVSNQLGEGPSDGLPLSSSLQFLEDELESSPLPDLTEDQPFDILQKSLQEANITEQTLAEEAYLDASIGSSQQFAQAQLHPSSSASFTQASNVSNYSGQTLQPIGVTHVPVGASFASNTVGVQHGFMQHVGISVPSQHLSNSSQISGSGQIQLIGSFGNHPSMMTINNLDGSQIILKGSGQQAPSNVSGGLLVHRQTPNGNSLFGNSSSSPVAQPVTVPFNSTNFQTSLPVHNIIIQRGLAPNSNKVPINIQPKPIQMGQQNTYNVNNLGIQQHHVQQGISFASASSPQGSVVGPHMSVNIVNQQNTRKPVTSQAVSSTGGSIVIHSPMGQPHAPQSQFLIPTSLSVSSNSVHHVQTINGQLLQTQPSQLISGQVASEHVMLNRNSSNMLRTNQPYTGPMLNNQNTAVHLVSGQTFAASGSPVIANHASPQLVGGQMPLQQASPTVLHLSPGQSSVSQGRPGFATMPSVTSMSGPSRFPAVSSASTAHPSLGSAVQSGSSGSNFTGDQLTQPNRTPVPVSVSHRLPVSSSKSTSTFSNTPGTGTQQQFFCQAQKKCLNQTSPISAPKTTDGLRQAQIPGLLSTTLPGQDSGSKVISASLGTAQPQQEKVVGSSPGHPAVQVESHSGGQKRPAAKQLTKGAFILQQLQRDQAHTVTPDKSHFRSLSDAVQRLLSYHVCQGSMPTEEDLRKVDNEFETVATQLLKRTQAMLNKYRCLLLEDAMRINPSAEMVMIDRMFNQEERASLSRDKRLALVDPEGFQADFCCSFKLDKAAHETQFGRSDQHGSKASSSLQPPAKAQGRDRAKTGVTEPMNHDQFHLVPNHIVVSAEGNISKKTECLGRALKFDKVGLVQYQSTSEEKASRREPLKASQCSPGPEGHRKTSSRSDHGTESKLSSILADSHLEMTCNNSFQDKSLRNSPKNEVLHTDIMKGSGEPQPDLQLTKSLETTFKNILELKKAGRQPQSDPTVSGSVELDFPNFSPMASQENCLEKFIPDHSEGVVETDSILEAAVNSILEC
# UniProt Q9H0C5: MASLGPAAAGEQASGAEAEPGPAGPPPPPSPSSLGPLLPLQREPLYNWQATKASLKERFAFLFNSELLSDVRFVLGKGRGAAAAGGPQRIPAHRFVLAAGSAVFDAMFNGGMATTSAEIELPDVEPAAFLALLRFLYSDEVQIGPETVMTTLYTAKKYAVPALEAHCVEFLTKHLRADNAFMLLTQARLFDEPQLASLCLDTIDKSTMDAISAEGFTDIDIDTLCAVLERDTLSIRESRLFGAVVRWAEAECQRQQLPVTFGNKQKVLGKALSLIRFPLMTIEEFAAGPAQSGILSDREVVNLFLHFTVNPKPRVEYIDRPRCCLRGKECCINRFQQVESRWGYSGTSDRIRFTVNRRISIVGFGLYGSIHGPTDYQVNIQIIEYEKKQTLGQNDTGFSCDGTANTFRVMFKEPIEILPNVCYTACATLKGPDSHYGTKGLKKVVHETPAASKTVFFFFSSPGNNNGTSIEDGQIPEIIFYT
# UniProt Q9NWD9: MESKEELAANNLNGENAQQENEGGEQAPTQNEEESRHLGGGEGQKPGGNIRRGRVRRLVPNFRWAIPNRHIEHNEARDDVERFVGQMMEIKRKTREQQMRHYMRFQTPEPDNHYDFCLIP
# UniProt O14503, whole entry, looked up: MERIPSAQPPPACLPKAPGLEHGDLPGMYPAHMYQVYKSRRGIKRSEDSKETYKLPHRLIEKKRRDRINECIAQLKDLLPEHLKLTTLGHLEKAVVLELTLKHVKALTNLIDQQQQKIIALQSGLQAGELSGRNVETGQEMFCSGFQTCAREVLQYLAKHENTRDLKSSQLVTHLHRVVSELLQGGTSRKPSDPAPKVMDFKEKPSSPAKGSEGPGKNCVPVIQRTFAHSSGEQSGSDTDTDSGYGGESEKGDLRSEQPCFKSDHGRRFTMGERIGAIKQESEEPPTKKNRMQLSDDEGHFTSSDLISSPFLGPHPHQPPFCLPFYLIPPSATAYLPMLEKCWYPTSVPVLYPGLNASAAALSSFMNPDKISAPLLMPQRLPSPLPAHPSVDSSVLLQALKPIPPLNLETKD
# UniProt Q5H9F3: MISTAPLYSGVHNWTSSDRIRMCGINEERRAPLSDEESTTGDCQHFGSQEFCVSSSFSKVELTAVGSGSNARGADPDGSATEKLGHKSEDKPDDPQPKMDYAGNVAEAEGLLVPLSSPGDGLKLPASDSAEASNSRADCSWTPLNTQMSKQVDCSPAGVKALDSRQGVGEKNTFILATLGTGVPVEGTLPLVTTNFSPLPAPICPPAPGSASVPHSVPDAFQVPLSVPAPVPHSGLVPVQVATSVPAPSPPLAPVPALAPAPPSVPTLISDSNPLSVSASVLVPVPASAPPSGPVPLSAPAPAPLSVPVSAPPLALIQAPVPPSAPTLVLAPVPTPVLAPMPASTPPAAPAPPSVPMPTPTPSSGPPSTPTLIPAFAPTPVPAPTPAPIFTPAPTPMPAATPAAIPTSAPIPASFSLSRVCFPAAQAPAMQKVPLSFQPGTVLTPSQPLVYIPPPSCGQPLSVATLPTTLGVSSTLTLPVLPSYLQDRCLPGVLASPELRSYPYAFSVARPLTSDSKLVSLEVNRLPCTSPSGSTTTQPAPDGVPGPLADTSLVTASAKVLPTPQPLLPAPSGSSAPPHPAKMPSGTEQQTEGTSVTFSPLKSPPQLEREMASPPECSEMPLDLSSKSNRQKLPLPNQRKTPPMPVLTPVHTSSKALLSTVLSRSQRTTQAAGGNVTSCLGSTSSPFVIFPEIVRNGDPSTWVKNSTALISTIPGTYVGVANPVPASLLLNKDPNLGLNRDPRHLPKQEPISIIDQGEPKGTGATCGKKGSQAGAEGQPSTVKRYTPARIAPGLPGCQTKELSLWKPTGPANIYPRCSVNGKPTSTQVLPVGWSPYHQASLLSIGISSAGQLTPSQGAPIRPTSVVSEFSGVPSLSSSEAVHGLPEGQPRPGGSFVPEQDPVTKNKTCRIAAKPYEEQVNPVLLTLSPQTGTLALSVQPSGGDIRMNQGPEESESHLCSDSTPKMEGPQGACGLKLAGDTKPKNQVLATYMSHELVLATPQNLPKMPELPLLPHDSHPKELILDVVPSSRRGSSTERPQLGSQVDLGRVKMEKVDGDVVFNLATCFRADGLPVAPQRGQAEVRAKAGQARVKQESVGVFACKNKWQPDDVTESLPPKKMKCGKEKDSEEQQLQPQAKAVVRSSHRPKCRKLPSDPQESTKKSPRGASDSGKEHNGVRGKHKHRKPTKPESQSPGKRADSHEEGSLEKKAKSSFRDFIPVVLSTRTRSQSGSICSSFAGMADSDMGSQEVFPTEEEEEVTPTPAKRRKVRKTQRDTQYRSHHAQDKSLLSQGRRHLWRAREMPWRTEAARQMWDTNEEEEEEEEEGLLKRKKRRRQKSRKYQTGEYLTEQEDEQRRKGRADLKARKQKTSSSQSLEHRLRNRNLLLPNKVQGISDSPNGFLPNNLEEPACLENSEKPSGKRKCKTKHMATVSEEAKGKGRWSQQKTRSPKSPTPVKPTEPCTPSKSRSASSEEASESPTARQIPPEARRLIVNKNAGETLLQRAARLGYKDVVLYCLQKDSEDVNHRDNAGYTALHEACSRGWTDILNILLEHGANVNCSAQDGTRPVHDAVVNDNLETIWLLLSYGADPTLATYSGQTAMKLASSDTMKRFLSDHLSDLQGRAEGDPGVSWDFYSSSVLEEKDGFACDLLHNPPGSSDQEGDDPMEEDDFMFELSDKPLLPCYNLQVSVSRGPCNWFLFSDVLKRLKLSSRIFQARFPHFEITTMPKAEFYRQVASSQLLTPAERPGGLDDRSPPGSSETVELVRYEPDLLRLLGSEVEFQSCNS
# UniProt P10415, whole entry, looked up: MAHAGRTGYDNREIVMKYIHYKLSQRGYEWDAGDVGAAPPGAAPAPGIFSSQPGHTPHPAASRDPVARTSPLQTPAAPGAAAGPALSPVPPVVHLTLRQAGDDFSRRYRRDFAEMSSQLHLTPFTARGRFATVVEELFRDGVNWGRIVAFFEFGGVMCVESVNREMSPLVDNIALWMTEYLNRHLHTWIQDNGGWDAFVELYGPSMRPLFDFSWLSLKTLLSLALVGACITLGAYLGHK
# UniProt Q76KP1: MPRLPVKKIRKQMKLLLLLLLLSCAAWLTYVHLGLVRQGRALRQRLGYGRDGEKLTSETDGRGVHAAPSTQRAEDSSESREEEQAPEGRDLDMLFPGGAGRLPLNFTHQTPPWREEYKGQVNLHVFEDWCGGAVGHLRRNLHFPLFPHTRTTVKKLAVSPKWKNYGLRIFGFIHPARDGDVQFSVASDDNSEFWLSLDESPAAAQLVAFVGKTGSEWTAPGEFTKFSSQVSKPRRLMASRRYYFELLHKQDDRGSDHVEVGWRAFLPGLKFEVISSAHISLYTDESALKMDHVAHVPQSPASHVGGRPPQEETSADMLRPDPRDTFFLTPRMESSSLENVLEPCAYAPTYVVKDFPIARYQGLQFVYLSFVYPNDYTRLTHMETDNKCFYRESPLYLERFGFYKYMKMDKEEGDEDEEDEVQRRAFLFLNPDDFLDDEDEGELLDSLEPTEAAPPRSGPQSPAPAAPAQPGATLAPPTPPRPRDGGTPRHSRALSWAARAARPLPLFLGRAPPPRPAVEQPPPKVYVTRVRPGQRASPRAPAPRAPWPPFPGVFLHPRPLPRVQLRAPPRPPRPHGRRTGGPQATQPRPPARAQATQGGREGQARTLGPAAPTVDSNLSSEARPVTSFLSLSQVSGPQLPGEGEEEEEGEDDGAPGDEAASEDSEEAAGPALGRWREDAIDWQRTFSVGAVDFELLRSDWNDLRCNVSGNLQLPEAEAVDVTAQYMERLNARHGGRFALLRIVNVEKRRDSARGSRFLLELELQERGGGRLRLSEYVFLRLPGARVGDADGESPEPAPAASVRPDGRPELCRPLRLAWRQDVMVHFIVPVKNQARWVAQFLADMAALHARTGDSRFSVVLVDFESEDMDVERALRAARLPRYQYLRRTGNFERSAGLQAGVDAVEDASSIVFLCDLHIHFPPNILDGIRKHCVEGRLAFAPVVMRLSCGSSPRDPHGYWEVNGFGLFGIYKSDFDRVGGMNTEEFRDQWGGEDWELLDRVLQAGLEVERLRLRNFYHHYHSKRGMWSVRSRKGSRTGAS
# This is one part of the list.
# Key:
# Assay in all cases: log2 fold change, soluble protein after heating vs DMSO (PISA); higher = thermal stabilisation; K562 lysate, 10 uM; active = over 0.2 and 3.5 SD of the protein, either way, in both replicates (recomputed)
# [1] = compound: C[C@H](C1=CC=C(C=C1)C(=O)NC2=C3C=CNC3=NC=C2)N
# Method in brief: (§1)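 The values are log-two fold changes in thermal stability compared with solvent controls and come from duplicates. They were obtained by TMTpro 16plex LC-MS/MS, with channel sums equalised, on the supernatant after 21,000xg for 90 min. That supernatant came from crude K562 extract at 1 mg/mL protein treated with 10 μM compound for 30 min, heated for 3 min across 48°C-58°C, pooled and brought to 0.5% NP-40 at 4°C.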
# gandotinib = compound: Cc1cc(Nc2cc(CN3CCOCC3)c3nc(C)c(Cc4ccc(Cl)cc4F)n3n2)n[nH]1 [gandotinib]
# Method in brief: as §1
# [2] = compound: Cc1cccc(CC(=O)N2CCc3c2ccc(-c2cn(C)c4ncnc(N)c24)c3F)n1
# Method in brief: as §1
# nilotinib = compound: Cc1cn(-c2cc(NC(=O)c3ccc(C)c(Nc4nccc(-c5cccnc5)n4)c3)cc(C(F)(F)F)c2)cn1 [nilotinib]
# Method in brief: as §1
# [3] = compound: Cc1nc(Nc2n[nH]c3c2CN(C(=O)N[C@H](CN(C)C)c2ccccc2)C3(C)C)c2sccc2n1
# Method in brief: as §1
# [4] = compound: Cc1ncc(-c2ccnc(Nc3ccc(S(C)(=O)=O)cc3)n2)n1C(C)C
# Method in brief: as §1
# tipifarnib = compound: Cn1cncc1[C@@](N)(c1ccc(Cl)cc1)c1ccc2c(c1)c(-c1cccc(Cl)c1)cc(=O)n2C [tipifarnib]
# Method in brief: as §1
# tozasertib = compound: Cc1cc(Nc2cc(N3CCN(C)CC3)nc(Sc3ccc(NC(=O)C4CC4)cc3)n2)n[nH]1 [tozasertib]
# Method in brief: as §1
# pictilisib = compound: CS(=O)(=O)N1CCN(Cc2cc3nc(-c4cccc5[nH]ncc45)nc(N4CCOCC4)c3s2)CC1 [pictilisib]
# Method in brief: as §1
# bafetinib = compound: Cc1ccc(NC(=O)c2ccc(CN3CC[C@H](N(C)C)C3)c(C(F)(F)F)c2)cc1Nc1nccc(-c2cncnc2)n1 [bafetinib]
# Method in brief: as §1
# [5] = compound: NC1(c2ccc(-c3nc4ccn5c(=O)[nH]nc5c4cc3-c3ccccc3)cc2)CCC1
# Method in brief: as §1
# crizotinib = compound: C[C@@H](Oc1cc(-c2cnn(C3CCNCC3)c2)cnc1N)c1c(Cl)ccc(F)c1Cl [crizotinib]
# Method in brief: as §1
# duvelisib = compound: C[C@H](Nc1ncnc2nc[nH]c12)c1cc2cccc(Cl)c2c(=O)n1-c1ccccc1 [duvelisib]
# Method in brief: as §1
# doramapimod = compound: Cc1ccc(-n2nc(C(C)(C)C)cc2NC(=O)Nc2ccc(OCCN3CCOCC3)c3ccccc23)cc1 [doramapimod]
# Method in brief: as §1
# dasatinib = compound: Cc1nc(Nc2ncc(C(=O)Nc3c(C)cccc3Cl)s2)cc(N2CCN(CCO)CC2)n1 [dasatinib]
# Method in brief: as §1
# [6] = compound: Cn1cc(-c2ccc3c(c2)CCN3C(=O)Cc2cccc(C(F)(F)F)c2)c2c(N)ncnc21
# Method in brief: as §1
# quisinostat = compound: Cn1cc(CNCC2CCN(c3ncc(C(=O)NO)cn3)CC2)c2ccccc21 [quisinostat]
# Method in brief: as §1
# [7] = compound: NC(=O)Nc1cc(-c2cccc(F)c2)sc1C(=O)N[C@H]1CCCNC1
# Method in brief: as §1
target,measurement,setting,value
BMT2 (UniProt Q1RMZ1),log2 fold change,[1],inactive: 0.116
same,log2 fold change,gandotinib,inactive: -0.124
same,log2 fold change,[2],inactive: -0.056
same,log2 fold change,nilotinib,inactive: 0.172
same,log2 fold change,[3],active: -0.923
same,log2 fold change,[4],inactive: 0.134
same,log2 fold change,tipifarnib,inactive: 0
BPIFB1 (UniProt Q8TDL5),log2 fold change,[1],inactive: 0.414
same,log2 fold change,gandotinib,inactive: 0.352
same,log2 fold change,tozasertib,inactive: 0.407
same,log2 fold change,[2],inactive: 0.795
same,log2 fold change,nilotinib,inactive: -0.015
same,log2 fold change,[3],inactive: 0.005
same,log2 fold change,[4],inactive: -0.004
same,log2 fold change,tipifarnib,inactive: -0.122
BPIFA2 (UniProt Q96DR5),log2 fold change,pictilisib,inactive: -0.329
same,log2 fold change,[1],inactive: 0.353
same,log2 fold change,gandotinib,inactive: -0.071
same,log2 fold change,tozasertib,inactive: 1.59
same,log2 fold change,bafetinib,inactive: 0.025
same,log2 fold change,[2],inactive: 1.17
same,log2 fold change,nilotinib,inactive: -0.075
same,log2 fold change,[3],inactive: -0.707
same,log2 fold change,[4],inactive: 0.131
same,log2 fold change,tipifarnib,inactive: -0.524
same,log2 fold change,[5],inactive: 1.9
BBX (UniProt Q8WY36),log2 fold change,crizotinib,inactive: 0.155
same,log2 fold change,duvelisib,inactive: -0.118
same,log2 fold change,tozasertib,inactive: -0.034
same,log2 fold change,doramapimod,inactive: -0.07
same,log2 fold change,nilotinib,inactive: -0.141
same,log2 fold change,[3],inactive: 0.117
same,log2 fold change,dasatinib,inactive: 0.023
same,log2 fold change,[4],inactive: 0.234
same,log2 fold change,[6],inactive: 0.113
same,log2 fold change,quisinostat,inactive: -0.183
same,log2 fold change,tipifarnib,inactive: -0.362
same,log2 fold change,[7],inactive: -0.103
same,log2 fold change,[5],inactive: 0.077
BAIAP2 isoform 6 (UniProt Q9UQB8),log2 fold change,crizotinib,inactive: -0.054
same,log2 fold change,[1],inactive: -0.041
same,log2 fold change,gandotinib,inactive: 0.031
same,log2 fold change,doramapimod,inactive: 0.192
same,log2 fold change,[2],inactive: 0.002
same,log2 fold change,quisinostat,inactive: 0.025
same,log2 fold change,[7],inactive: -0.017
BICRAL (UniProt Q6AI39),log2 fold change,tozasertib,inactive: 0.056
BBS7 (UniProt Q8IWZ6),log2 fold change,crizotinib,inactive: -0.036
same,log2 fold change,[1],inactive: 0.003
same,log2 fold change,duvelisib,inactive: 0.039
same,log2 fold change,gandotinib,inactive: 0.072
same,log2 fold change,tozasertib,inactive: 0.021
same,log2 fold change,doramapimod,inactive: 0.151
same,log2 fold change,[2],inactive: -0.119
same,log2 fold change,nilotinib,inactive: -0.039
same,log2 fold change,[3],inactive: 0.065
same,log2 fold change,dasatinib,inactive: -0.061
same,log2 fold change,[4],inactive: -0.03
same,log2 fold change,[6],active: 0.489
same,log2 fold change,quisinostat,inactive: 0.06
same,log2 fold change,tipifarnib,inactive: -0.133
same,log2 fold change,[7],inactive: -0.044
same,log2 fold change,[5],inactive: 0.14
"BCAP31, A0A2R8Y5M6",log2 fold change,[1],inactive: 0.112
same,log2 fold change,gandotinib,inactive: 0.112
same,log2 fold change,tozasertib,inactive: 0.199
same,log2 fold change,[2],inactive: -0.13
BTBD1 (UniProt Q9H0C5),log2 fold change,pictilisib,inactive: -0.007
same,log2 fold change,[1],inactive: -0.074
same,log2 fold change,gandotinib,inactive: 0.035
same,log2 fold change,tozasertib,inactive: -0.057
same,log2 fold change,bafetinib,inactive: 0.006
same,log2 fold change,[2],inactive: -0.029
same,log2 fold change,nilotinib,inactive: 0.085
same,log2 fold change,[3],inactive: -0.057
same,log2 fold change,[4],inactive: -0.034
same,log2 fold change,tipifarnib,inactive: -0.4
same,log2 fold change,[5],inactive: 0.049
BEX4 (UniProt Q9NWD9),log2 fold change,crizotinib,inactive: 0.018
same,log2 fold change,duvelisib,inactive: 0.034
same,log2 fold change,doramapimod,inactive: 0.092
same,log2 fold change,nilotinib,inactive: 0.043
same,log2 fold change,[3],inactive: -0.008
same,log2 fold change,dasatinib,inactive: 0.005
same,log2 fold change,[4],inactive: 0.081
same,log2 fold change,[6],inactive: 0.09
same,log2 fold change,quisinostat,inactive: -0.038
same,log2 fold change,tipifarnib,inactive: -0.019
same,log2 fold change,[7],inactive: 0
same,log2 fold change,[5],inactive: -0.087
BAG6 (UniProt F6WML8),log2 fold change,tozasertib,inactive: 0.012
same,log2 fold change,[5],inactive: -0.137
BHLHE40 (UniProt O14503),log2 fold change,crizotinib,inactive: -0.044
same,log2 fold change,doramapimod,inactive: 0.024
same,log2 fold change,quisinostat,inactive: 0.025
same,log2 fold change,[7],inactive: 0.097
same,log2 fold change,[5],inactive: -0.109
B4GALT7 (UniProt Q9UBV7),log2 fold change,crizotinib,inactive: -0.024
same,log2 fold change,[1],inactive: 0.218
same,log2 fold change,gandotinib,inactive: -0.138
same,log2 fold change,tozasertib,inactive: -0.044
same,log2 fold change,doramapimod,inactive: -0.102
same,log2 fold change,[2],inactive: -0.119
same,log2 fold change,quisinostat,inactive: 0.092
same,log2 fold change,[7],inactive: 0.031
same,log2 fold change,[5],inactive: -0.018
"BRAF, A0A2R8Y8E0",log2 fold change,tozasertib,inactive: 0.035
BPNT1 (UniProt A6NF51),log2 fold change,pictilisib,inactive: -0.072
same,log2 fold change,duvelisib,inactive: -0.193
same,log2 fold change,tozasertib,inactive: 0.03
same,log2 fold change,bafetinib,inactive: -0.094
same,log2 fold change,dasatinib,inactive: 0.129
same,log2 fold change,[6],inactive: -0.06
same,log2 fold change,[5],inactive: -0.028
BCORL1 isoform 3 (UniProt Q5H9F3),log2 fold change,crizotinib,inactive: -0.162
same,log2 fold change,[1],active: -0.577
same,log2 fold change,duvelisib,inactive: 0.1
same,log2 fold change,gandotinib,inactive: 0.238
same,log2 fold change,tozasertib,inactive: 0.049
same,log2 fold change,doramapimod,inactive: 0.117
same,log2 fold change,[2],inactive: 0.475
same,log2 fold change,dasatinib,inactive: 0.039
same,log2 fold change,[6],inactive: -0.09
same,log2 fold change,quisinostat,inactive: 0.035
same,log2 fold change,[7],inactive: 0.235
same,log2 fold change,[5],inactive: -0.091
BTG3 isoform 2 (UniProt Q14201),log2 fold change,tozasertib,inactive: 0.062
same,log2 fold change,[5],inactive: 0.279
BCL2 (UniProt P10415),log2 fold change,pictilisib,inactive: -0.037
same,log2 fold change,bafetinib,inactive: 0.004
B4GALNT4 (UniProt Q76KP1),log2 fold change,crizotinib,inactive: -0.061
same,log2 fold change,doramapimod,inactive: -0.031
same,log2 fold change,quisinostat,inactive: 0.01
same,log2 fold change,[7],inactive: 0.112
"BEGAIN, A0A1B0GVM0",log2 fold change,crizotinib,inactive: -0.081
same,log2 fold change,tozasertib,inactive: -0.014
same,log2 fold change,doramapimod,inactive: -0.056
same,log2 fold change,nilotinib,inactive: 0.02
same,log2 fold change,[3],inactive: 0.055
same,log2 fold change,[4],inactive: 0.047
same,log2 fold change,quisinostat,inactive: -0.003
same,log2 fold change,tipifarnib,inactive: -0.068
same,log2 fold change,[7],inactive: 0.039
same,log2 fold change,[5],inactive: -0.05
